From PubChem BioAssay AID248 (DTP/NCI, 2004)
The list is a part of this screen's results and no random one: it is rich in T/C values a quarter to a half above the control, in often repeated tests (any T/C) and in doses without a T/C. Further doses and runs are listed elsewhere. T/C: endpoint of the treated group in % of that of the vehicle group. Some doses have a count of surviving animals in place of a T/C: the source files T/C as zero there, which appears to mark a toxic dose or a test without result, not a measured value. Some doses without a T/C left all or most animals alive at the check, yet need not have been tolerated: the source hardly ever lists a survival T/C far under the control, and the zero likely stands for such cases as well. Counts of survivors are from the toxicity check (mostly the fifth day) where no day follows; animals may have died later. Schedules are NCI's codes, taken here to give the interval after Q, in days (D) or hours (H), and the number of doses after X. Some entries hold several experiments; their values stand side by side, smallest first. Some schedules carry Z or #; the key to these is not given. For survival time, this PubChem deposit counts one and a half times the control or more as active, and values a quarter to a half above the control carry no call in these data; other NCI protocols may use other cut-offs. Some T/C values carry the count of animals alive at the toxicity check (mostly the fifth day); without a count, all were alive then.

Tested on: L1210 leukemia ip in BDF1 mice, survival T/C
Test: NCI In Vivo Anticancer Drug Screen. Data for tumor model L1210 Leukemia (intraperitoneal) in B6D2F1 (BDF1) mice
Conditions: higher T/C = longer survival

N[C@@H](Cc1ccc(N(CCCl)CCCl)cc1)C(=O)O was tested, and the T/C (T/C endpoint: mean survival time, dose: 10.0 mg/kg/injection, schedule: Q01DX001 (ip), vehicle: saline, evaluated on day 45) was 253 % of control, the T/C (T/C endpoint: mean survival time, dose: 10.0 mg/kg/injection, schedule: Q01DX001 (ip), vehicle: saline, evaluated on day 60) was 136 [7 of 8 alive], 256, 257, 478 % of control and the T/C (T/C endpoint: mean survival time, dose: 10.0 mg/kg/injection, schedule: Q04DX003 (ip), vehicle: saline) was 127 and 134 % of control. The T/C (T/C endpoint: mean survival time, dose: 12.5 mg/kg/injection, schedule: Q01DX001 (ip), vehicle: saline) was 131 and 133 % of control, the T/C (T/C endpoint: mean survival time, dose: 14.0 mg/kg/injection, schedule: Q04DX002 (ip), vehicle: Klucel (hydroxypropylcellulose) (HPC)) was 128, 177, 208, 247 % of control and the survivor count (T/C endpoint: mean survival time, dose: 15.0 mg/kg/injection, schedule: Q01DX009 (ip), vehicle: saline) was 5 of 6 and 6 of 6. The T/C (T/C endpoint: mean survival time, dose: 16.0 mg/kg/injection, schedule: Q01DX001 (ip), vehicle: saline) was 129 % of control [9 of 10 alive], the T/C (T/C endpoint: mean survival time, dose: 16.0 mg/kg/injection, schedule: Q01DX001 (sc), vehicle: saline) was 136 % of control and the survivor count (T/C endpoint: mean survival time, dose: 16.0 mg/kg/injection, schedule: Q01DX009 (ip), vehicle: saline) was 9 of 10 and 10 of 10. For the same compound, the survivor count (T/C endpoint: mean survival time, dose: 16.0 mg/kg/injection, schedule: Q01DX009 (oral), vehicle: saline) was 9 of 10, the survivor count (T/C endpoint: mean survival time, dose: 16.0 mg/kg/injection, schedule: Q01DX009 (sc), vehicle: saline) was 10 of 10 and the T/C (T/C endpoint: mean survival time, dose: 16.0 mg/kg/injection, schedule: Q04DX003 (ip), vehicle: saline) was 136 % of control. For the same compound, the survivor count (T/C endpoint: mean survival time, dose: 16.7 mg/kg/injection, schedule: Q01DX001 (ip), vehicle: saline) was 5 of 8, the survivor count (T/C endpoint: mean survival time, dose: 25.0 mg/kg/injection, schedule: Q01DX001 (ip), vehicle: carboxymethylcellulose (CMC)) was 3 of 6 and the survivor count (T/C endpoint: mean survival time, dose: 25.0 mg/kg/injection, schedule: Q01DX Z (ip), vehicle: carboxymethylcellulose (CMC)) was 8 of 10 and 10 of 10. For the same compound, the survivor count (T/C endpoint: mean survival time, dose: 28.0 mg/kg/injection, schedule: Q04DX002 (ip), vehicle: Klucel (hydroxypropylcellulose) (HPC)) was 3 of 3 and 6 of 6, the survivor count (T/C endpoint: mean survival time, dose: 30.0 mg/kg/injection, schedule: Q01DX009 (ip), vehicle: saline) was 1 of 6 and the survivor count (T/C endpoint: mean survival time, dose: 32.0 mg/kg/injection, schedule: Q01DX001 (sc), vehicle: saline) was 7 of 10. The survivor count (T/C endpoint: mean survival time, dose: 32.0 mg/kg/injection, schedule: Q01DX009 (ip), vehicle: saline) was 4 of 10, the survivor count (T/C endpoint: mean survival time, dose: 32.0 mg/kg/injection, schedule: Q01DX Z (ip), vehicle: carboxymethylcellulose (CMC)) was 5 of 6 and the survivor count (T/C endpoint: mean survival time, dose: 32.0 mg/kg/injection, schedule: Q04DX003 (ip), vehicle: saline) was 7 of 10. The survivor count (T/C endpoint: mean survival time, dose: 32.0 mg/kg/injection, schedule: Q08DX002 (ip), vehicle: saline) was 9 of 10, the survivor count (T/C endpoint: mean survival time, dose: 50.0 mg/kg/injection, schedule: Q01DX001 (ip), vehicle: carboxymethylcellulose (CMC)) was 2 of 6 and the survivor count (T/C endpoint: mean survival time, dose: 50.0 mg/kg/injection, schedule: Q01DX Z (ip), vehicle: carboxymethylcellulose (CMC)) was 2 of 10 and 3 of 10. The survivor count (T/C endpoint: mean survival time, dose: 64.0 mg/kg/injection, schedule: Q01DX001 (ip), vehicle: saline) was 9 of 10, the survivor count (T/C endpoint: mean survival time, dose: 64.0 mg/kg/injection, schedule: Q01DX001 (oral), vehicle: saline) was 8 of 10 and the survivor count (T/C endpoint: mean survival time, dose: 64.0 mg/kg/injection, schedule: Q01DX001 (sc), vehicle: saline) was 7 of 10. For the same compound, the survivor count (T/C endpoint: mean survival time, dose: 64.0 mg/kg/injection, schedule: Q01DX009 (ip), vehicle: saline) was 1 of 10, the survivor count (T/C endpoint: mean survival time, dose: 64.0 mg/kg/injection, schedule: Q08DX002 (ip), vehicle: saline) was 8 of 10 and the survivor count (T/C endpoint: mean survival time, dose: 75.0 mg/kg/injection, schedule: Q01DX Z (ip), vehicle: carboxymethylcellulose (CMC)) was 0 of 10. The survivor count (T/C endpoint: mean survival time, dose: 100.0 mg/kg/injection, schedule: Q01DX001 (ip), vehicle: carboxymethylcellulose (CMC)) was 1 of 6, the survivor count (T/C endpoint: mean survival time, dose: 128.0 mg/kg/injection, schedule: Q01DX009 (ip), vehicle: saline) was 0 of 10 and the survivor count (T/C endpoint: mean survival time, dose: 200.0 mg/kg/injection, schedule: Q01DX001 (ip), vehicle: carboxymethylcellulose (CMC)) was 0 of 6. For the same compound, the survivor count (T/C endpoint: mean survival time, dose: 256.0 mg/kg/injection, schedule: Q01DX009 (ip), vehicle: saline) was 0 of 10, the survivor count (T/C endpoint: mean survival time, dose: 400.0 mg/kg/injection, schedule: Q01DX001 (ip), vehicle: carboxymethylcellulose (CMC)) was 0 of 6 and the T/C (T/C endpoint: median survival time, dose: 0.5 mg/kg/injection, schedule: Q01DX009 (ip), vehicle: saline, evaluated on day 5) was 130, 131, 134 % of control. For the same compound, the T/C (T/C endpoint: median survival time, dose: 0.5 mg/kg/injection, schedule: Q01DX009 (ip), vehicle: saline, evaluated on day 24) was 130 % of control, the T/C (T/C endpoint: median survival time, dose: 0.5 mg/kg/injection, schedule: Q01DX009 (ip), vehicle: saline, evaluated on day 33) was 131 and 134 % of control and the T/C (T/C endpoint: median survival time, dose: 1.0 mg/kg/injection, schedule: Q01DX009 (ip), vehicle: saline, evaluated on day 5) was 131, 137, 140, 142, 153 % of control. For the same compound, the T/C (T/C endpoint: median survival time, dose: 1.0 mg/kg/injection, schedule: Q01DX009 (ip), vehicle: saline, evaluated on day 24) was 140 % of control.
